PubChem BioAssay AID2517 (National Center for Advancing Translational Sciences (NCATS), 2010)
Where “and” joins values, the source holds several entries; their conditions need not be identical. Equal entries are not always repeated. The whole screen tested about 350,000 compounds, of which about 1,200 (0.34%) were called active. Inconclusive results, whose numbers are uncertain, are shown with a selection of clear calls. Calls come from the whole dose curve; as a rule, active = well fitted inhibition curve with a large enough effect; inconclusive = small, poorly fitted or top-dose-only effect; inactive = no such curve, though single readings can be large or run the other way. Where the call is inconclusive, the potency comes from a doubtful curve fit.

Protein sequences, listed by entry. Tags and fused reporters are not part of them.
UniProt P27695, whole entry, looked up: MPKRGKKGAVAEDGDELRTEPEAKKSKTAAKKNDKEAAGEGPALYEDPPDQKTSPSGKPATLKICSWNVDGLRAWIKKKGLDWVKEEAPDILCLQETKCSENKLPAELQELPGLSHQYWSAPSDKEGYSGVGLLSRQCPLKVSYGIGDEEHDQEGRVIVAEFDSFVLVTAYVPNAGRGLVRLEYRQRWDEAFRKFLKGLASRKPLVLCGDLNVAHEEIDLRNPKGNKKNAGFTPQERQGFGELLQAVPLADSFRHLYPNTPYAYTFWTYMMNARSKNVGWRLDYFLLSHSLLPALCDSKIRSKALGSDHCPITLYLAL

Each compound was assayed against DNA repair nuclease/redox regulator APEX1 (Homo sapiens) (UniProt P27695) (assay: qHTS Assay for Inhibitors of the Human Apurinic/apyrimidinic Endonuclease 1 (APE1)). Conditions: recombinant APE1, TAMRA/BHQ-2 abasic DNA cleavage fluorescence; activity change, negative = inhibition: at 65.8 µM (top of the series).
Method in brief: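 Incision of a quenched TAMRA/BHQ-2 THF abasic-site duplex (50 nM) by 0.75 nM APE1, after 15 min compound preincubation, measured as fluorescence increase over three 60 s reads. Values normalized to buffer, DMSO and NSC13755 control wells.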
Note: nearly all actives have a fitted effect of over 55% in size.
Potency is the fitted concentration of half-maximal effect.
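Throughout, for activity change, negative = inhibition: plate controls were vehicle for no effect and reference inhibitor for full effect.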

Row | Structure (SMILES) | Potency | activity change, negative = inhibition
1 | O=C(CNc1ccc(F)cc1F)NC(=O)NCc1ccco1 | inconclusive: 25.1 µM [inhibitor, single point] | –
2 | O=C(Nc1nccs1)c1cc(-c2ccco2)nc2ccccc12 | inconclusive: 15.8 µM [inhibitor, partial curve] | –
3 | CCCCCCCCCCCCC/C=C/[C@@H](O)[C@H](CO)N(C)C | inactive | –
4 | COC(=O)NC(c1ccccc1)[C@@]1(C(=O)OC)CCCC1=O (stereo partly specified) | inconclusive: 3.55 µM [inhibitor, single point] | –
5 | C=CCNC(=O)c1cccc(NS(=O)(=O)c2ccc(Cl)cc2)c1 | inconclusive: 31.6 µM [inhibitor, single point] | –
6 | CCOC(=O)C1=CN(C(=O)OC(C)(C)C)C(CN2C(=O)COCC2=O)C1 (stereo unspecified) | inactive | –
7 | COc1ccc(NC(=O)c2cc3ccc4c5ccccc5[nH]c4c3cc2O)cc1 | inconclusive: 14.1 µM [inhibitor, partial curve, poor fit] | –
8 | NS(=O)(=O)c1ccc(NC(=O)COC(=O)Cc2c[nH]c3ccccc23)cc1 | inactive | –
9 | Cc1ccc(Oc2ccc3c(c2)C(=O)N(c2ccc(S(=O)(=O)Nc4nccs4)cc2)C3=O)cc1 | inactive | –
10 | CN(c1ccccc1)S(=O)(=O)c1cccc(Cl)c1Cl | inconclusive: 2 µM [inhibitor, partial curve, poor fit] | –
11 | C#CCSc1nnnn1-c1cccc(Cl)c1 | inconclusive: 22.4 µM [inhibitor, single point] | –
12 | CCOC(=O)COc1ccc(S(=O)(=O)Nc2ccc3c(c2)OCO3)cc1 | inconclusive: 126 µM [inhibitor, partial curve, poor fit] | –
13 | CCC(=O)Nc1ccc(NC(=S)NC(=O)/C=C/c2ccco2)cc1 | inactive | –
14 | CCCCn1c(C)cc2c(c1=O)[C@H]1O[C@](CCCC)(Cc3cc(OC)c(OC)cc31)O2 | – | inactive: -0.454% [at 12.4 µM]
15 | COc1ccc(N2CCC(CNC(=O)Nc3ccc(C)c(C)c3)C2)cc1 (stereo unspecified) | inconclusive: 10 µM [inhibitor, single point] | –
16 | O=C(CCn1c(=O)oc2ccccc21)Nc1nc2ccccc2s1 | inconclusive: 3.16 µM [inhibitor, full curve, poor fit] | –
17 | Cn1c(C2=C(O)CN(Cc3ccccc3)C2=N)[n+](C)c2ccccc21 | inconclusive: 3.55 µM [inhibitor, single point] | –
18 | N/C(=N\OC(=O)c1ccc(F)cc1)c1ccc(Br)cc1 | inactive | –
19 | COc1ccc(C)cc1NC(=O)CSc1nnc(COc2ccc(Cl)cc2)n1Cc1ccco1 | inconclusive: 1.12 µM [inhibitor, full curve, poor fit] | –
20 | CCCn1c(=O)c2ccccc2n2c(SCCNCCO)nnc12 | inactive | –
21 | O=C(O)c1ccc(/C=C/c2nc3sc4c(c3c(=O)[nH]2)CCC4)cc1 | inconclusive: 12.6 µM [inhibitor, partial curve] | –
22 | Cc1ccc(/C=N/n2c(-c3ccncc3)n[nH]c2=S)cc1 | inconclusive: 0.708 µM [inhibitor, full curve, poor fit] | –

Row | Structure (SMILES) | Potency | activity change, negative = inhibition
23 | Cc1ccc(-n2ncc3c(=O)n(CC(=O)NCc4ccco4)cnc32)cc1C | inconclusive: 39.8 µM [inhibitor, single point] | –
24 | CC(=O)c1ccccc1Oc1cc(NN2CCCCC2)c([N+](=O)[O-])cc1[N+](=O)[O-] | inactive | –
25 | COc1ccc2nc(NC(=O)c3ccc(NS(=O)(=O)c4cccs4)cc3)sc2c1 | inconclusive: 10 µM [inhibitor, partial curve, poor fit] | –
26 | CN(C)CC#Cc1cncc(C(=O)NNC(=O)Nc2ccc(Cl)cc2)c1 | inconclusive: 6.31 µM [inhibitor, partial curve, poor fit] | –
27 | O=C(O)CCCn1cc(NC(=O)COc2ccc([N+](=O)[O-])cc2)cn1 | inconclusive: 20 µM [inhibitor, partial curve] | –
28 | Cc1ccc(Sc2c(CO)c(-c3ccccc3)nn2C)cc1 | inconclusive: 3.55 µM [inhibitor, full curve, poor fit] | –
29 | O=C(Nc1nnc(SCc2ccc(Cl)cc2)s1)C1CC(=O)N(Cc2ccccc2)C1 (stereo unspecified) | inconclusive: 44.7 µM [inhibitor, single point] | –
30 | C=CCOc1ccccc1C1C2=C(CC(C)(C)CC2=O)Nc2c1c(=O)n(C)c(=O)n2C (stereo unspecified) | inactive | –
31 | CC1CC(C)CN(C(=O)C2CCC(CNc3c(N4CCCCC4)c(=O)c3=O)CC2)C1 (stereo unspecified) | inactive | –
32 | CCOC(=O)c1sc2nc(CSCC(=O)OCc3ccc(C(=O)OC)o3)[nH]c(=O)c2c1C | inactive | –
33 | Cc1ccc(NS(=O)(=O)c2ccc3c(c2)NC(=O)CO3)c(C)c1 | inactive | –
34 | Cc1cccc(NC(=O)CSc2nnc(NC(=O)CN3CCOCC3)s2)c1 | inconclusive: 1580 µM [inhibitor, partial curve, poor fit] | –
35 | O=C(/C=C/c1ccccc1)NCc1cccnc1 | inactive | –
36 | CCc1c(O)nc(SCC(=O)Nc2ccc(OC)cc2)n(C2CCCCC2)c1=O | inconclusive: 17.8 µM [inhibitor, single point] | –
37 | CC(=O)Nc1ccc2c(CSc3nncs3)cc(=O)oc2c1 | inconclusive: 4.47 µM [inhibitor, partial curve, poor fit] | –
38 | O=C(NCc1ccc2c(c1)OCO2)c1cc2ncc(Br)cn2n1 | inconclusive: 25.1 µM [inhibitor, single point] | –
39 | O=C(Nc1cccc(-c2nc3cccnc3s2)c1)C1c2ccccc2Oc2ccccc21 | inconclusive: 3.16 µM [inhibitor, partial curve, poor fit] | –
40 | COC(=O)C1C2C=CC3(CN(c4ccc(Cl)c(F)c4)C(=O)C13)O2 (stereo unspecified) | inactive | –
41 | COC(=O)c1ccc(NS(=O)(=O)c2ccc(Cl)cc2)o1 | inconclusive: 5.62 µM [inhibitor, partial curve] | –
42 | CS(=O)(=O)N1CCN(C(=O)Cc2cccs2)CC1 | inconclusive: 35.5 µM [inhibitor, single point] | –
43 | COC(=O)c1c(C)nc(C)c(C(=O)OC)c1-c1cccs1 | inactive | –
44 | CO[C@@H]1COC(=O)[C@H](COCc2ccccc2)NC(=O)C/C=C\[C@@H](C)[C@H](OC)COC(=O)[C@@H](C)NC(=O)C/C=C\[C@H]1C | inconclusive: 3.55 µM [inhibitor, single point] | –

A different layout for some results above:
Row	Structure (SMILES)	Potency	activity change, negative = inhibition
5	C=CCNC(=O)c1cccc(NS(=O)(=O)c2ccc(Cl)cc2)c1	inconclusive: 31.6 µM [inhibitor, single point]	–
6	CCOC(=O)C1=CN(C(=O)OC(C)(C)C)C(CN2C(=O)COCC2=O)C1 (stereo unspecified)	inactive	–
7	COc1ccc(NC(=O)c2cc3ccc4c5ccccc5[nH]c4c3cc2O)cc1	inconclusive: 14.1 µM [inhibitor, partial curve, poor fit]	–
8	NS(=O)(=O)c1ccc(NC(=O)COC(=O)Cc2c[nH]c3ccccc23)cc1	inactive	–
9	Cc1ccc(Oc2ccc3c(c2)C(=O)N(c2ccc(S(=O)(=O)Nc4nccs4)cc2)C3=O)cc1	inactive	–
10	CN(c1ccccc1)S(=O)(=O)c1cccc(Cl)c1Cl	inconclusive: 2 µM [inhibitor, partial curve, poor fit]	–
11	C#CCSc1nnnn1-c1cccc(Cl)c1	inconclusive: 22.4 µM [inhibitor, single point]	–
12	CCOC(=O)COc1ccc(S(=O)(=O)Nc2ccc3c(c2)OCO3)cc1	inconclusive: 126 µM [inhibitor, partial curve, poor fit]	–
13	CCC(=O)Nc1ccc(NC(=S)NC(=O)/C=C/c2ccco2)cc1	inactive	–
14	CCCCn1c(C)cc2c(c1=O)[C@H]1O[C@](CCCC)(Cc3cc(OC)c(OC)cc31)O2	–	inactive: -0.454% [at 12.4 µM]
15	COc1ccc(N2CCC(CNC(=O)Nc3ccc(C)c(C)c3)C2)cc1 (stereo unspecified)	inconclusive: 10 µM [inhibitor, single point]	–
16	O=C(CCn1c(=O)oc2ccccc21)Nc1nc2ccccc2s1	inconclusive: 3.16 µM [inhibitor, full curve, poor fit]	–
17	Cn1c(C2=C(O)CN(Cc3ccccc3)C2=N)[n+](C)c2ccccc21	inconclusive: 3.55 µM [inhibitor, single point]	–
18	N/C(=N\OC(=O)c1ccc(F)cc1)c1ccc(Br)cc1	inactive	–
19	COc1ccc(C)cc1NC(=O)CSc1nnc(COc2ccc(Cl)cc2)n1Cc1ccco1	inconclusive: 1.12 µM [inhibitor, full curve, poor fit]	–
20	CCCn1c(=O)c2ccccc2n2c(SCCNCCO)nnc12	inactive	–
21	O=C(O)c1ccc(/C=C/c2nc3sc4c(c3c(=O)[nH]2)CCC4)cc1	inconclusive: 12.6 µM [inhibitor, partial curve]	–

(next part)

Row | Structure (SMILES) | Potency | activity change, negative = inhibition
45 | O=C(/C=N/O)NCc1ccncc1 | inconclusive: 44.7 µM [inhibitor, single point] | –
46 | C[N+]1(CCOc2ccc([N+](=O)[O-])cc2)CCOCC1 | inactive | –
47 | CCCC1=C(C(=O)OCC)C(c2ccc(N(C)C)cc2)n2ncnc2N1 (stereo unspecified) | inconclusive: 5.01 µM [inhibitor, single point] | –
48 | CC(C)CC(=O)N1CCN(S(=O)(=O)c2ccccc2)CC1 | inactive | –
49 | COC(=O)c1ccc(OC(=O)c2ccccn2)cc1 | inactive | –
50 | Fc1ccccc1OCCn1c(=S)[nH]c2ccccc21 | inconclusive: 33.6 µM [inhibitor, single point] | –
51 | O=C(c1ccc(F)cc1)[C@@H]1[C@@H](C(=O)c2ccccc2)[C@@]2(C(=O)Nc3ccccc32)[C@H]2c3ccccc3C=CN12 | inconclusive: 44.7 µM [inhibitor, single point] | –
52 | CCCCn1c(N)c(N(CC(C)C)C(=O)CCCSc2nncs2)c(=O)[nH]c1=O | inconclusive: 10 µM [inhibitor, single point] | –
53 | CCOC(=O)N1CCC(NS(=O)(=O)c2ccc(C)cc2)CC1 | inconclusive: 8.91 µM [inhibitor, single point] | –
54 | O=C(O)CCCCCn1c(SCC(=O)c2ccc(O)c(O)c2)nc2ccsc2c1=O | inconclusive: 3.98 µM [inhibitor, partial curve] | –
55 | Cc1ccc(-n2c(SCC(=O)N/N=C/c3ccccc3OCC(=O)O)nc3ccccc3c2=O)cc1 | inconclusive: 3.16 µM [inhibitor, partial curve] | –
56 | CCCC(=O)Nc1ccc2c(c1)COC2=O | inconclusive: 35.5 µM [inhibitor, single point] | –
57 | COc1ccc(CNC(=O)CCCCCNc2nc(=S)[nH]c3ccccc23)cc1 | inconclusive: 1.26 µM [inhibitor, full curve, poor fit] | –
58 | Cc1ccc(-c2c[n+](Cc3cccc(Cl)c3)c3n2CCC3)cc1 | inconclusive: 2.51 µM [inhibitor, single point] | –
59 | CC1=C(C)C(=O)C(CCCCC#CCCCC#CCO)=C(C)C1=O | inconclusive: 44.7 µM [inhibitor, single point] and inconclusive: 35.5 µM [inhibitor, partial curve] | –
60 | Cc1ccc(NC(=O)CCSCCc2ccccn2)cc1 | inconclusive: 31.6 µM [inhibitor, single point] | –
61 | O=C(O)c1ccc(COc2c(F)c(F)cc(F)c2F)o1 | inconclusive: 28.2 µM [inhibitor, partial curve] | –
62 | C#CCOCCOCCOCCNc1nc(N2CCN(C(=O)[C@H](CCC(=O)O)n3cc(C(N)CC(C)C)nn3)CC2)nc(N2CCN(C(=O)[C@H](CCC(=O)O)n3cc(C(N)CC(C)C)nn3)CC2)n1 (stereo partly specified) | inactive | –
63 | C/C(=C\CO)CCO | inactive | –
64 | O=C(Nc1nc2ccc(F)cc2s1)C1CCN(S(=O)(=O)c2cc([N+](=O)[O-])ccc2Cl)CC1 | inconclusive: 10 µM [inhibitor, partial curve] | –
65 | Cc1ccc(C(NC(=O)N2CCCC2)C(Cl)Cl)cc1F (stereo unspecified) | inconclusive: 3.16 µM [inhibitor, single point] | –
66 | COc1cc(NC(=O)c2cccs2)c(C(=O)OCC(=O)NCc2ccco2)cc1OC | inconclusive: 22.4 µM [inhibitor, partial curve] | –
